# Record: PubChem BioAssay AID1259405 (NCATS, 2018)
# Screen: 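Knock-downs that lift recombinant protein yield in hamster ovary cells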 (primary screen)
# Cells: Chinese hamster CHO-K1 ovary cells with stable secreted eGFP expression
# Reagents: single siRNA against mouse genes, 0.8 pmol siRNA per well (2 µl of 400 nM stock)
# Time to read-out: 3 days
# Detection: 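Per-well intracellular GFP measured by laser scanning cytometry, plus viability from ATP luminescence, each relative to plate median of non-targeting control wells, in %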
# Reading the numbers: GFP, % of control: higher = more GFP per well, higher productivity; viability (ATP), % of control: higher = more viable cells (more ATP)
# Active means: 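a knock-down is called active if GFP reaches 120% or more of non-targeting control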
# Here is one part, drawn at random, of about 50,000 reagents. In the full data, about 4,000 (8%) were called active. 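Mouse siRNA library applied to hamster cells; one well for each siRNA.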 The numbers tell different reagents against one gene apart.
Target gene,reagent no.,"GFP, % of control","viability (ATP), % of control",activity call
"Zdhhc9 (zinc finger, DHHC domain containing 9)",1,27.8,20.7,inactive
"Zdhhc9 (zinc finger, DHHC domain containing 9)",2,172,93.7,active
"Zdhhc9 (zinc finger, DHHC domain containing 9)",3,87.3,106,inactive
Prkd3 (protein kinase D3),1,107,70,inactive
"Aldh3a1 (aldehyde dehydrogenase family 3, subfamily A1)",1,75.8,82.2,inactive
"Aldh3a1 (aldehyde dehydrogenase family 3, subfamily A1)",2,134,93.7,active
"Aldh3a1 (aldehyde dehydrogenase family 3, subfamily A1)",3,61.3,55.6,inactive
Tspear (thrombospondin type laminin G domain and EAR repeats),1,111,90.5,inactive
Tspear (thrombospondin type laminin G domain and EAR repeats),2,122,88.6,active
Tspear (thrombospondin type laminin G domain and EAR repeats),3,92.4,140,inactive
"Prkcd (protein kinase C, delta)",1,81.3,84.6,inactive
"Prkcd (protein kinase C, delta)",2,110,104,inactive
"Prkcd (protein kinase C, delta)",3,92.6,76,inactive
Rnf4 (ring finger protein 4),1,91.1,75.6,inactive
Rnf4 (ring finger protein 4),2,77.5,77.7,inactive
Rnf4 (ring finger protein 4),3,80,95.6,inactive
"Pdk2 (pyruvate dehydrogenase kinase, isoenzyme 2)",1,65.8,65.6,inactive
"Dmd (dystrophin, muscular dystrophy)",1,45.7,55.4,inactive
"Dmd (dystrophin, muscular dystrophy)",2,72.5,79.1,inactive
"Dmd (dystrophin, muscular dystrophy)",3,114,81.1,inactive
Neurod1 (neurogenic differentiation 1),1,111,107,inactive
Neurod1 (neurogenic differentiation 1),2,83.6,91.3,inactive
Neurod1 (neurogenic differentiation 1),3,79.4,110,inactive
"Cyp2j5 (cytochrome P450, family 2, subfamily j, polypeptide 5)",1,43.7,81.9,inactive
"Cyp2j5 (cytochrome P450, family 2, subfamily j, polypeptide 5)",2,71,85.7,inactive
"Cyp2j5 (cytochrome P450, family 2, subfamily j, polypeptide 5)",3,102,91.3,inactive
Brd3 (bromodomain containing 3),1,49.3,69.5,inactive
Brd3 (bromodomain containing 3),2,95.7,84.3,inactive
Brd3 (bromodomain containing 3),3,53.5,61.9,inactive
Vmn1r75 (vomeronasal 1 receptor 75),1,67.7,41.3,inactive
Vmn1r75 (vomeronasal 1 receptor 75),2,102,83.4,inactive
Vmn1r75 (vomeronasal 1 receptor 75),3,34.6,50.4,inactive
Cirbp (cold inducible RNA binding protein),1,53.9,53.2,inactive
Cirbp (cold inducible RNA binding protein),2,70.5,61.5,inactive
Cirbp (cold inducible RNA binding protein),3,185,132,active

15 neighbouring records already listed:
Target gene,reagent no.,"GFP, % of control","viability (ATP), % of control",activity call
Tspear (thrombospondin type laminin G domain and EAR repeats),3,92.4,140,inactive
"Prkcd (protein kinase C, delta)",1,81.3,84.6,inactive
"Prkcd (protein kinase C, delta)",2,110,104,inactive
"Prkcd (protein kinase C, delta)",3,92.6,76,inactive
Rnf4 (ring finger protein 4),1,91.1,75.6,inactive
Rnf4 (ring finger protein 4),2,77.5,77.7,inactive
Rnf4 (ring finger protein 4),3,80,95.6,inactive
"Pdk2 (pyruvate dehydrogenase kinase, isoenzyme 2)",1,65.8,65.6,inactive
"Dmd (dystrophin, muscular dystrophy)",1,45.7,55.4,inactive
"Dmd (dystrophin, muscular dystrophy)",2,72.5,79.1,inactive
"Dmd (dystrophin, muscular dystrophy)",3,114,81.1,inactive
Neurod1 (neurogenic differentiation 1),1,111,107,inactive
Neurod1 (neurogenic differentiation 1),2,83.6,91.3,inactive
Neurod1 (neurogenic differentiation 1),3,79.4,110,inactive
"Cyp2j5 (cytochrome P450, family 2, subfamily j, polypeptide 5)",1,43.7,81.9,inactive

Continued:
Target gene,reagent no.,"GFP, % of control","viability (ATP), % of control",activity call
Oog2 (oogenesin 2),1,77.3,75,inactive
Oog2 (oogenesin 2),2,85.4,73.9,inactive
Oog2 (oogenesin 2),3,58.5,53.8,inactive
Epor (erythropoietin receptor),1,67.4,85.2,inactive
Epor (erythropoietin receptor),2,49.5,42.8,inactive
Epor (erythropoietin receptor),3,52.9,41.8,inactive
"Ntrk2 (neurotrophic tyrosine kinase, receptor, type 2)",1,108,88.7,inactive
"Ntrk2 (neurotrophic tyrosine kinase, receptor, type 2)",2,96,89.8,inactive
"Ntrk2 (neurotrophic tyrosine kinase, receptor, type 2)",3,99.7,74.7,inactive
Eps8l1 (EPS8 signaling adaptor L1),1,74.3,70.5,inactive
Eps8l1 (EPS8 signaling adaptor L1),2,55.5,64.9,inactive
Eps8l1 (EPS8 signaling adaptor L1),3,78.3,118,inactive
Smg5 (SMG5 nonsense mediated mRNA decay factor),1,47.7,58.2,inactive
Smg5 (SMG5 nonsense mediated mRNA decay factor),2,81.4,46.6,inactive
Smg5 (SMG5 nonsense mediated mRNA decay factor),3,73.4,105,inactive
Taar5 (trace amine-associated receptor 5),1,156,104,active
Taar5 (trace amine-associated receptor 5),2,98.3,59.6,inactive
Taar5 (trace amine-associated receptor 5),3,44.4,37.5,inactive
"Glra4 (glycine receptor, alpha 4 subunit)",1,71.3,80.5,inactive
"Glra4 (glycine receptor, alpha 4 subunit)",2,45.5,65.4,inactive
"Glra4 (glycine receptor, alpha 4 subunit)",3,46.3,61.7,inactive
Htr2b (5-hydroxytryptamine (serotonin) receptor 2B),1,66.9,68.2,inactive
Htr2b (5-hydroxytryptamine (serotonin) receptor 2B),2,62.7,80.9,inactive
Htr2b (5-hydroxytryptamine (serotonin) receptor 2B),3,96.6,49.4,inactive
Defb20 (defensin beta 20),1,95.7,97.4,inactive
Defb20 (defensin beta 20),2,60,49.7,inactive
Defb20 (defensin beta 20),3,44.4,54.4,inactive
Vps18 (VPS18 CORVET/HOPS core subunit),1,102,120,inactive
Vps18 (VPS18 CORVET/HOPS core subunit),2,124,107,active
Rtp1 (receptor transporter protein 1),1,51.2,75.1,inactive
Rtp1 (receptor transporter protein 1),2,74.1,101,inactive
Rtp1 (receptor transporter protein 1),3,55.7,85.6,inactive
"Mgat4a (mannoside acetylglucosaminyltransferase 4, isoenzyme A)",1,64.3,65,inactive
"Mgat4a (mannoside acetylglucosaminyltransferase 4, isoenzyme A)",2,78.2,102,inactive
"Mgat4a (mannoside acetylglucosaminyltransferase 4, isoenzyme A)",3,120,112,inactive
"Chac1 (ChaC, cation transport regulator 1)",1,91.9,92,inactive
"Chac1 (ChaC, cation transport regulator 1)",2,56.6,60.1,inactive
"Chac1 (ChaC, cation transport regulator 1)",3,63.9,81.5,inactive
"Pigl (phosphatidylinositol glycan anchor biosynthesis, class L)",1,50.2,51.9,inactive
"Pigl (phosphatidylinositol glycan anchor biosynthesis, class L)",2,131,109,active
Mdfi (MyoD family inhibitor),1,68.6,67.4,inactive
Mdfi (MyoD family inhibitor),2,67.9,77.7,inactive
Mdfi (MyoD family inhibitor),3,62.1,66.7,inactive
Scd4 (stearoyl-coenzyme A desaturase 4),1,47.9,43.2,inactive
Scd4 (stearoyl-coenzyme A desaturase 4),2,54.1,58.5,inactive
Scd4 (stearoyl-coenzyme A desaturase 4),3,76,86.2,inactive
Spata1 (spermatogenesis associated 1),1,84.4,83,inactive
Spata1 (spermatogenesis associated 1),2,41.9,24.7,inactive
Spata1 (spermatogenesis associated 1),3,111,90.3,inactive
Sgpp2 (sphingosine-1-phosphate phosphatase 2),1,135,87,active
Sgpp2 (sphingosine-1-phosphate phosphatase 2),2,95.6,74.9,inactive
Sgpp2 (sphingosine-1-phosphate phosphatase 2),3,77.7,79.7,inactive
Mapk8ip2 (mitogen-activated protein kinase 8 interacting protein 2),1,59.6,77.3,inactive
Mapk8ip2 (mitogen-activated protein kinase 8 interacting protein 2),2,66.7,82.9,inactive
Dzank1 (double zinc ribbon and ankyrin repeat domains 1),1,85,78.6,inactive
Dzank1 (double zinc ribbon and ankyrin repeat domains 1),2,29.4,26,inactive
Dzank1 (double zinc ribbon and ankyrin repeat domains 1),3,73.9,75.2,inactive
Cdc123 (cell division cycle 123),1,64.5,74.1,inactive
Cdc123 (cell division cycle 123),2,86.3,73.3,inactive
Cdc123 (cell division cycle 123),3,65.4,88.6,inactive
Ndufb10 (NADH:ubiquinone oxidoreductase subunit B10),1,102,83.2,inactive
Ndufb10 (NADH:ubiquinone oxidoreductase subunit B10),2,91.9,76.8,inactive
H2bc18 (H2B clustered histone 18),1,51.8,57.2,inactive
H2bc18 (H2B clustered histone 18),2,51.6,61.1,inactive
H2bc18 (H2B clustered histone 18),3,100,88.8,inactive
"Pals1 (protein associated with LIN7 1, MAGUK family member)",1,67.9,81,inactive
"Mrgprb2 (MAS-related GPR, member B2)",1,77.3,87,inactive
"Mrgprb2 (MAS-related GPR, member B2)",2,71.2,70.3,inactive
"Mrgprb2 (MAS-related GPR, member B2)",3,84.7,65.3,inactive
C3ar1 (complement component 3a receptor 1),1,95.6,75.4,inactive
C3ar1 (complement component 3a receptor 1),2,88.1,82.2,inactive
C3ar1 (complement component 3a receptor 1),3,70,59.7,inactive
